Reference: PMC5372560 (International Journal of Molecular Sciences, 2017)

Assay: general procedure: solution-phase peptide synthesis; HATU, DEPBT, TBTU
Settings: cyclisation step

Substance | cyclisation yield
Cyclo(Me-D-Leu-Leu-Phe-Me-Leu-Leu | 36.5%
Cyclo(Me-Leu-Leu-Phe-Me-D-Leu-Leu) | 38.5%
Cyclo(Me-Leu-Leu-D-Phe-Me-Leu-Leu) | 42.3%
Cyclo(Me-Leu-Leu-Phe-Me-Leu-D-Leu) | 34.2%
Cyclo(Me-Leu-D-Leu-Phe-Me-Leu-Leu) | 42.5%
Cyclo(Me-Leu-Leu-Phe-Me-Leu-Leu) | 40.2%
